Results reported in paper PMC10371024.
No constants are given. Whether binding was seen depends on the method and setting. For part of these data: Binding seen in cells or lysates may run through a third protein. Some entries that bind do so weakly or less than the wild type.

Key:
Conditions in all cases: remark: other sources report otherwise
[1] = target: T1, Fas associated via death domain (FADD) (mouse (endogenous in MDFs and BMDMs)), Q61160; assay: SEC; lysates of Cflip^WT and Cflip^D377A MDFs treated with TNF, Smac mimetic and emricasan for 4 hours, separated on a Superose 6 column; fractions immunoblotted; fractions 17 to 21, apparent mass ~2 MDa
T1 chain: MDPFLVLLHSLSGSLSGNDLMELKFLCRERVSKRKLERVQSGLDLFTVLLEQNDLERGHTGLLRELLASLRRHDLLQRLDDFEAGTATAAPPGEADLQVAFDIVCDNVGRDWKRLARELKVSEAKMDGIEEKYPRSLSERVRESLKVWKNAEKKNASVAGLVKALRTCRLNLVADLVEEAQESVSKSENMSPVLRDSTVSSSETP

[2] = target: T1, Fas associated via death domain (FADD) …; assay: co-IP; FADD-specific antibody on protein G Sepharose; lysates of WT and Cflip^D377A MDFs treated with TNF and emricasan and of BMDMs treated with TNF, birinapant and emricasan; 1% Triton X-100 lysis buffer, 4 hours at 4°C; immunoblotting
[3] = target: T1, Fas associated via death domain (FADD) …; assay: co-IP; FADD immunoprecipitated from pooled Superose 6 fractions 17 to 21 of lysates of WT cells treated with TBE; immunoblotting (fig. S5A)

Measured: binding

B1: RIPK3, Q9QZL0 1-486 (protein)
chain: MSSVKLWPTGASAVPLVSREELKKLEFVGKGGFGVVFRAHHRTWNHDVAVKIVNSKKISWEVKAMVNLRNENVLLLLGVTEDLQWDFVSGQALVTRFMENGSLAGLLQPECPRPWPLLCRLLQEVVLGMCYLHSLNPPLLHRDLKPSNILLDPELHAKLADFGLSTFQGGSQSGSGSGSGSRDSGGTLAYLDPELLFDVNLKASKASDVYSFGILVWAVLAGREAELVDKTSLIRETVCDRQSRPPLTELPPGSPETPGLEKLKELMIHCWGSQSENRPSFQDCEPKTNEVYNLVKDKVDAAVSEVKHYLSQHRSSGRNLSAREPSQRGTEMDCPRETMVSKMLDRLHLEEPSGPVPGKCPERQAQDTSVGPATPARTSSDPVAGTPQIPHTLPFRGTTPGPVFTETPGPHPQRNQGDGRHGTPWYPWTPPNPMTGPPALVFNNCSEVQIGNYNSLVAPPRTTASSSAKYDQAQFGRGRGWQPFHK
binds: all assays above
